These are yes or no findings as the source states them, for the method shown. In cells and extracts the contact can be indirect. Some results given as binding are weak or reduced against the parent protein; the word gives no strength. For part of these data: Where a sequence is shown, tags or fusion partners need not be part of it. Values belong to the binder of their own block, whether it stands above or below them.
How the values were obtained:
[1] = molecular target: Homeodomain-interacting protein kinase 2 (endogenous) (human (endogenous in HCT116)) (UniProt Q9H2X6); test: co-IP; HCT116 total cell extracts, untreated or treated 24 h with 2 uM ADR; immunoprecipitated with anti-HIPK2 antibody, western blot; lysis buffer 50 mM Tris-HCl pH 7.4, 250 mM NaCl, 0.1% Triton, 5 mM EDTA, 25 mM NaF, 4 °C
[2] = molecular target: HDM2/MDM2 human double minute 2, E3 ubiquitin protein ligase (endogenous) (human (endogenous in HCT116)) (UniProt Q00987); test: co-IP; HCT116 cells transiently transfected with GFP-HIPK2 or GFP-K221R and treated with ADR; total cell extracts immunoprecipitated with anti-HDM2 (anti-MDM2) antibody, western blot
Myc-tagged Che-1 = molecular target: T1, Myc-tagged Che-1 (UniProt Q9NY61); test: co-IP; HCT116 cells transiently transfected with Myc-Che-1 (or its deletion mutants) and GFP-HIPK2 (or its deletion mutant); total cell extracts immunoprecipitated with anti-Myc antibody, western blot
T1 sequence: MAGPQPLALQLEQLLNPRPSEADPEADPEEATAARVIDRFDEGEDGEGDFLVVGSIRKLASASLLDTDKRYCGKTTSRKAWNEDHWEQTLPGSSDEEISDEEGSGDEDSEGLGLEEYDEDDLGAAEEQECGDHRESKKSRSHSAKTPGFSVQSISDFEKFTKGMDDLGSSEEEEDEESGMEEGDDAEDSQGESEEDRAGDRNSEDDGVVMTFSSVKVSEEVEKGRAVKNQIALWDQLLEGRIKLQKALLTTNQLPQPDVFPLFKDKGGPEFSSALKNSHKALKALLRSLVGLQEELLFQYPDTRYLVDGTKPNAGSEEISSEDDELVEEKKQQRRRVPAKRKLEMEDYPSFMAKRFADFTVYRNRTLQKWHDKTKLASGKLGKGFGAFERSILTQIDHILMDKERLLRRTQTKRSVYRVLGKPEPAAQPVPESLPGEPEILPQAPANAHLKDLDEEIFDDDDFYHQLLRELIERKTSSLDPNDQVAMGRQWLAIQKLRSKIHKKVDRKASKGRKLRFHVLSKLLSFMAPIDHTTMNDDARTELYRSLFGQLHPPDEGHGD

Protein sequences, listed by entry. Tags and fused reporters are not part of them.
UniProt Q00987: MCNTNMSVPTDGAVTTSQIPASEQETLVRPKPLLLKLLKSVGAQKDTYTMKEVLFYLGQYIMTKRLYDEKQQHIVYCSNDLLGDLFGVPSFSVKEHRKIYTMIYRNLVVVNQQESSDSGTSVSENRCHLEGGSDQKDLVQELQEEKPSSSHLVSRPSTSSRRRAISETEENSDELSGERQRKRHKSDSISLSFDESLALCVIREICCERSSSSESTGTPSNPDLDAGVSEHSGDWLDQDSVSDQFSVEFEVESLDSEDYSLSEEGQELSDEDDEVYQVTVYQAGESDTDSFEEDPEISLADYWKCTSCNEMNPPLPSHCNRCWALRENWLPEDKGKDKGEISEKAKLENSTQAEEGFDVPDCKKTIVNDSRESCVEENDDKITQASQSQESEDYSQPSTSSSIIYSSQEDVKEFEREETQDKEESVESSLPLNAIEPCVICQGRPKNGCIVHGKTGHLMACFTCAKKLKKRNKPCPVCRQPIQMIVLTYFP

binding [1]: binds
binding [2]: binds
B1: Che-1/AATF (endogenous) (protein, UniProt Q9NY61 1-560)
chain: T1 sequence

binding (Myc-tagged Che-1): binds
B2: GFP-HIPK2 (1-838) (domain or fragment, UniProt Q9H2X6 1-838)
chain: MAPVYEGMASHVQVFSPHTLQSSAFCSVKKLKIEPSSNWDMTGYGSHSKVYSQSKNIPLSQPATTTVSTSLPVPNPSLPYEQTIVFPGSTGHIVVTSASSTSVTGQVLGGPHNLMRRSTVSLLDTYQKCGLKRKSEEIENTSSVQIIEEHPPMIQNNASGATVATATTSTATSKNSGSNSEGDYQLVQHEVLCSMTNTYEVLEFLGRGTFGQVVKCWKRGTNEIVAIKILKNHPSYARQGQIEVSILARLSTESADDYNFVRAYECFQHKNHTCLVFEMLEQNLYDFLKQNKFSPLPLKYIRPVLQQVATALMKLKSLGLIHADLKPENIMLVDPSRQPYRVKVIDFGSASHVSKAVCSTYLQSRYYRAPEIILGLPFCEAIDMWSLGCVIAELFLGWPLYPGASEYDQIRYISQTQGLPAEYLLSAGTKTTRFFNRDTDSPYPLWRLKTPDDHEAETGIKSKEARKYIFNCLDDMAQVNMTTDLEGSDMLVEKADRREFIDLLKKMLTIDADKRITPIETLNHPFVTMTHLLDFPHSTHVKSCFQNMEICKRRVNMYDTVNQSKTPFITHVAPSTSTNLTMTFNNQLTTVHNQAPSSTSATISLANPEVSILNYPSTLYQPSAASMAAVAQRSMPLQTGTAQICARPDPFQQALIVCPPGFQGLQASPSKHAGYSVRMENAVPIVTQAPGAQPLQIQPGLLAQQAWPSGTQQILLPPAWQQLTGVATHTSVQHATVIPETMAGTQQLADWRNTHAHGSHYNPIMQQPALLTGHVTLPAAQPLNVGVAHVMRQQPTSTTSSRKSKQHQSSVRNVSTCEVSSSQAISSPQRSKRVKENT

Source: paper PMC4225224
